# Results published in publication PMC5872055.
# For at least one entry, the source does not settle the construct or the ends of the probe. Weaker means in comparison with the reference protein, sequence or condition of that experiment.
# How the values were obtained:
# thrombin = test: electrochemical impedance spectroscopy; settings: non-zero response, markedly smaller than lysozyme, attributed to non-specific adsorption; EIS: proteins in 50 mM phosphate buffer (PBS) pH 7.4, 15 min incubation, rinse with PBS and DI water, then ferro-/ferricyanide read-out; SWV: 10 mM PBS; commercial protein; single-stranded DNA
# [1] = molecular target: bovine serum albumin (bovine) (UniProt P02769); test: electrochemical impedance spectroscopy; settings: non-zero response, markedly smaller than lysozyme, attributed to non-specific adsorption; EIS: proteins in 50 mM phosphate buffer (PBS) pH 7.4, 15 min incubation, rinse with PBS and DI water, then ferro-/ferricyanide read-out; SWV: 10 mM PBS; commercial protein; single-stranded DNA
sequence,measurement,setting,value
ATCAGGGCTAAAGAGTGCAGAGTTACTTAG [anti-lysozyme aptamer (30-mer)],binding result,thrombin,binds more weakly
same,binding result,[1],binds more weakly
